Results are given in words; binding and its absence hold for the method and conditions named. In cells and extracts the contact can be indirect. These calls come from enrichment with a bait or labelling near it, and not all partners need be listed. For some of these results: A no says only that the protein was not detected with the bait. Where a sequence is shown, tags or fusion partners need not be part of it.
T1: GST-tagged human AIP p.R304Q (human) (UniProt O00170)
T1 sequence: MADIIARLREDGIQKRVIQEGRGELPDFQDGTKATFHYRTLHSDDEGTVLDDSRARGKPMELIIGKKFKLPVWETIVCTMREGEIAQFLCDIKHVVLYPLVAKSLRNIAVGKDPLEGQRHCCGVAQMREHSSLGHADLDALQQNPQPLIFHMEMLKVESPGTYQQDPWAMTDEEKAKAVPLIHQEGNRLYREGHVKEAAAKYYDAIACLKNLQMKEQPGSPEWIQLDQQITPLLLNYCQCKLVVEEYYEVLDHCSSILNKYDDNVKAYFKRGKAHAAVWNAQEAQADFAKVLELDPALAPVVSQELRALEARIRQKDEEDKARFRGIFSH

Protein sequences, listed by entry. Tags and fused reporters are not part of them.
UniProt P07632: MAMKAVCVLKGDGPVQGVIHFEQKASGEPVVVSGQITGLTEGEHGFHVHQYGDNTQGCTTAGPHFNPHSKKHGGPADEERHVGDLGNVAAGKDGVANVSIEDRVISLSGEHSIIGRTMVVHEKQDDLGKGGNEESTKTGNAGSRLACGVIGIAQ
UniProt P34058: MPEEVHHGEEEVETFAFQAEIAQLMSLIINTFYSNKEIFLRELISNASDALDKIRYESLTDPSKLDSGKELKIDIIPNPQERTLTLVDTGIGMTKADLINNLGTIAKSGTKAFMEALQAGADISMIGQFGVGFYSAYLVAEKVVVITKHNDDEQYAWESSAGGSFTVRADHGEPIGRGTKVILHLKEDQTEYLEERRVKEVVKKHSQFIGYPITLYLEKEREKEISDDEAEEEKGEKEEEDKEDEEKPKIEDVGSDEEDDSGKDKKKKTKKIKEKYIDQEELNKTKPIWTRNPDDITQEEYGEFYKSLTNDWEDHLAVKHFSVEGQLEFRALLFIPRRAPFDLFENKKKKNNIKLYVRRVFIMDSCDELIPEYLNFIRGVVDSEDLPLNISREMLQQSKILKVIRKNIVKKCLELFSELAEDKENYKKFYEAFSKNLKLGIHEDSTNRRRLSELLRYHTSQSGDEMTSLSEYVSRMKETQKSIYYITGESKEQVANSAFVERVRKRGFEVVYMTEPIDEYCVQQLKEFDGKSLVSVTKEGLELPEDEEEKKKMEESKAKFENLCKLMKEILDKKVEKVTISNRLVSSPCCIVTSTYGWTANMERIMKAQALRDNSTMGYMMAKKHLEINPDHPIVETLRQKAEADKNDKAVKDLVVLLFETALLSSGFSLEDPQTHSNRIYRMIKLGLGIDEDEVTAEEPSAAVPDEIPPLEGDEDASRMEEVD

T2: GST-tagged human AIP p.R304* (human, UniProt O00170 1-303)
T2 construct: AIP, human, UniProt O00170; natural nonsense variant c.910C>T, p.R304*: stop codon in place of R304, truncated protein ending at residue 303; The C-terminal limit 303 follows from the printed p.R304*; also called GST-AIP R304*; not shown: GST, N-terminal, kept
T2 sequence (looked up): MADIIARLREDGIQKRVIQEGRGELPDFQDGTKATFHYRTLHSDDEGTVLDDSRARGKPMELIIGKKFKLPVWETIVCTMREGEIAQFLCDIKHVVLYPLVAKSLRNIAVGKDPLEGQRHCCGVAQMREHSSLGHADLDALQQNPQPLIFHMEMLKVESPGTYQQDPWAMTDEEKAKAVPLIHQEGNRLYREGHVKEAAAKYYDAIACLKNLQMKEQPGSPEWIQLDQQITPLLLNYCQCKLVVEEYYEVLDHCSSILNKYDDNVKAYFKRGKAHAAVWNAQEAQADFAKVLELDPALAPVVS

T3: GST-tagged human wild-type AIP (aryl hydrocarbon receptor interacting protein) (human) (UniProt O00170)
T3 sequence: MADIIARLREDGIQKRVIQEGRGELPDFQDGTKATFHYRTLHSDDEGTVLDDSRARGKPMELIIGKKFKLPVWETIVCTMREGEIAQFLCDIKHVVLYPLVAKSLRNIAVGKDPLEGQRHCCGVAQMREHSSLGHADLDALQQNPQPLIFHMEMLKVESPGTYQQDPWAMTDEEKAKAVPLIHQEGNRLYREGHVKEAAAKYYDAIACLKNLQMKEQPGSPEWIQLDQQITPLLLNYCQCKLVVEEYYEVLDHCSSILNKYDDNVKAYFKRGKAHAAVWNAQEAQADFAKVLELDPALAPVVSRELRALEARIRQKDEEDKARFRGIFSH

T4: GST-tagged human AIP p.K266A (human) (UniProt O00170)
T4 sequence: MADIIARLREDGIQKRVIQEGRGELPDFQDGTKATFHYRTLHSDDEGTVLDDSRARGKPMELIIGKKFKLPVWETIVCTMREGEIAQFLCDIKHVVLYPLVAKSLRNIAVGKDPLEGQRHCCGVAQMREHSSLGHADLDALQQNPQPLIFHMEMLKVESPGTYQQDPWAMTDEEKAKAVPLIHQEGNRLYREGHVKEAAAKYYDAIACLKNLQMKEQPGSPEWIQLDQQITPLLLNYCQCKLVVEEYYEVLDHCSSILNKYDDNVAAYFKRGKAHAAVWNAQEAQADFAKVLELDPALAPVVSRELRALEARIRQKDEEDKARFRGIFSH

B1: NDKA_RAT Nucleoside diphosphate kinase A (Nme1) (natural protein, R. norvegicus (endogenous in GH3), UniProt Q05982 1-152, looked up)
chain: MANSERTFIAIKPDGVQRGLVGEIIKRFEQKGFRLVGLKFIQASEDLLKEHYIDLKDRPFFSGLVKYMHSGPVVAMVWEGLNVVKTGRVMLGETNPADSKPGTIRGDFCIQVGRNIIHGSDSVESAEKEISLWFQPEELVDYKSCAQNWIYE
notes: Nucleoside diphosphate kinase A, rat, UniProt Q05982; also called NME/NM23 nucleoside diphosphate kinase 1; source: endogenous, GH3 cell lysate
B2: TBB2A_RAT Tubulin beta-2A chain (Tubb2a) (natural protein, R. norvegicus (endogenous in GH3), UniProt P85108 1-445, looked up)
chain: MREIVHIQAGQCGNQIGAKFWEVISDEHGIDPTGSYHGDSDLQLERINVYYNEAAGNKYVPRAILVDLEPGTMDSVRSGPFGQIFRPDNFVFGQSGAGNNWAKGHYTEGAELVDSVLDVVRKESESCDCLQGFQLTHSLGGGTGSGMGTLLISKIREEYPDRIMNTFSVMPSPKVSDTVVEPYNATLSVHQLVENTDETYSIDNEALYDICFRTLKLTTPTYGDLNHLVSATMSGVTTCLRFPGQLNADLRKLAVNMVPFPRLHFFMPGFAPLTSRGSQQYRALTVPELTQQMFDSKNMMAACDPRHGRYLTVAAIFRGRMSMKEVDEQMLNVQNKNSSYFVEWIPNNVKTAVCDIPPRGLKMSATFIGNSTAIQELFKRISEQFTAMFRRKAFLHWYTGEGMDEMEFTEAESNMNDLVSEYQQYQDATADEQGEFEEEEGEDEA
notes: Tubulin beta-2A chain, rat, UniProt P85108; source: endogenous, GH3 cell lysate
B3: TBB5_RAT Tubulin beta-5 chain (Tubb5) (natural protein, R. norvegicus (endogenous in GH3), UniProt P69897 1-444, looked up)
chain: MREIVHIQAGQCGNQIGAKFWEVISDEHGIDPTGTYHGDSDLQLDRISVYYNEATGGKYVPRAILVDLEPGTMDSVRSGPFGQIFRPDNFVFGQSGAGNNWAKGHYTEGAELVDSVLDVVRKEAESCDCLQGFQLTHSLGGGTGSGMGTLLISKIREEYPDRIMNTFSVVPSPKVSDTVVEPYNATLSVHQLVENTDETYCIDNEALYDICFRTLKLTTPTYGDLNHLVSATMSGVTTCLRFPGQLNADLRKLAVNMVPFPRLHFFMPGFAPLTSRGSQQYRALTVPELTQQVFDAKNMMAACDPRHGRYLTVAAVFRGRMSMKEVDEQMLNVQNKNSSYFVEWIPNNVKTAVCDIPPRGLKMAVTFIGNSTAIQELFKRISEQFTAMFRRKAFLHWYTGEGMDEMEFTEAESNMNDLVSEYQQYQDATAEEEEDFGEEAEEEA
notes: Tubulin beta-5 chain, rat, UniProt P69897; also called tubulin beta chain; source: endogenous, GH3 cell lysate
B4: VAPA_RAT Vesicle-associated membrane protein-associated protein A (Vapa) (protein, UniProt Q9Z270 1-249)
chain: MASASGAMAKHEQILVLDPPSDLKFKGPFTDVVTTNLKLQNPSDRKVCFKVKTTAPRRYCVRPNSGVIDPGSIVTVSVMLQPFDYDPNEKSKHKFMVQTIFAPPNISDMEAVWKEAKPDELMDSKLRCVFEMPNENDKLNDMEPSKAVPLNASKQDGPLPKPHSVSLNDTETRKLMEECKRLQGEMMKLSEENRHLRDEGLRLRKVAHSDKPGSTSAVSFRDNVTSPLPSLLVVIAAIFIGFFLGKFIL
B5: ATPD_RAT ATP synthase subunit delta, mitochondrial (Atp5d) (protein, UniProt P35434 23-168)
chain: AQAAASPAPAAGPGQMSFTFASPTQVFFDGANVRQVDVPTLTGAFGILASHVPTLQVLRPGLVMVHAEDGTTTKYFVSSGSVTVNADSSVQLLAEEVVTLDMLDLGAARANLEKAQSELSGAADEAARAEIQIRIEANEALVKALE
B6: CRIP1_RAT Cysteine-rich protein 1 (Crip1) (protein, UniProt P63255 1-77)
chain: MPKCPKCDKEVYFAERVTSLGKDWHRPCLKCEKCGKTLTSGGHAEHEGKPYCNHPCYSAMFGPKGFGRGGAESHTFK
B7: FBX3_RAT F-box only protein 3 (Fbxo3) (protein, UniProt D4ABP9 1-480)
chain: MAAVEAETGLLTLESLPTDPLLLILSFVDYRDLINCCYVSRRLSQLSTHDPLWRRHCKKYWLITEEEKARKNQCWKSLFIATYSDVGRYINHYAAIKKAWDDLKKYLEPRCPRMVLSLKEGAREEDLDAVEAQIGCKLPDDYRCSYRIHNGQKLVVPGLLGSMALSNHYRSEDLLDVDTAAGGFQQRQGLKYCLPLTFCIHTGLSQYIAVEAAEGRNKNEVFYQCPDQMARNPAAIDMFIIGATFTDWFTSYVNNVVSGGFPIIRDQIFRYIHDPECVATTGDITVSVSTSFLPELSSVHPPHYFFTYRIRIEMSRDALPEKACQLDSRYWRITNAKGDVEEVQGPGVVGEFPIISPGRIYEYTSCTTFSTTSGYMEGYYTFHFLYFKDKVFNVAIPRFHMACPTFRVSIARLEMGPDEYEEMEEEAEEEEEEENDDSADMDESDESDEDENESDEGEGEERRRRVFDVPIRRRRCSRLF
B8: FUBP2_RAT Far upstream element-binding protein 2 (Khsrp) (protein, UniProt Q99PF5 1-721)
chain: MSDYSTGGPPPGPPPPAGGGGGAAGAGGGPPPGPPGAGDRGGGGPGGGGPGGGGASGGPSQPPGGGGPGIRKDAFADAVQRARQIAAKIGGDAATTVNNNTPDFGFGGQKRQLEDGDQPDSKKLASQGDSIGSQLGPIHPPPRTSMTEEYRVPDGMVGLIIGRGGEQINKIQQDSGCKVQISPDSGGLPERSVSLTGAPESVQKAKMMLDDIVSRGRGGPPGQFHDNANGGQNGTVQEIMIPAGKAGLVIGKGGETIKQLQERAGVKMILIQDGSQNTNVDKPLRIIGDPYKVQQACEMVMDILRERDQGGFGDRNEYGSRVGGGIDVPVPRHSVGVVIGRSGEMIKKIQNDAGVRIQFKQDDGTGPEKIAHIMGPPDRCEHAARIINDLLQSLRSGPPGPPGAPGMPPGGRGRGRGQGNWGPPGGEMTFSIPTHKCGLVIGRGGENVKAINQQTGAFVEISRQLPPNGDPNFKLFVIRGSPQQIDHAKQLIEEKIEGPLCPVGPGPGGPGPAGPMGPFHPGPFNQGPPGAPPHAGGPPPHQYPPQGWGNTYPEWQPPAPHDPNKAAAAATDPNAAWAAYYSHYYQQPPGPVPGPAPAPAAPPAQGEPPQPPPTGQSDYTKAWEEYYKKIGQQPQQPGAPPQQDYTKAWEEYYKKQAQVATGGGPGAPPGSQPDYSAAWAEYYRQQAAYYGQTPGPGGPQPPSTQQGQQQATEANGYELHL
B9: CBR1_RAT Carbonyl reductase [NADPH] 1 (Cbr1) (protein, UniProt P47727 1-277)
chain: MSSDRPVALVTGANKGIGFAIVRDLCRKFLGDVVLTARDESRGHEAVKQLQTEGLSPRFHQLDIDNPQSIRALRDFLLQEYGGLNVLVNNAGIAFKVVDPTPFHIQAEVTMKTNFFGTQDVCKELLPIIKPQGRVVNVSSSVSLRALKSCSPELQQKFRSETITEEELVGLMNKFIEDAKKGVHAKEGWPNSAYGVTKIGVTVLSRIYARKLNEERREDKILLNACCPGWVRTDMAGPKATKSPEEGAETPVYLALLPPGAEGPHGQFVQDKKVEPW

Key:
Experiment in all cases: affinity purification with mass spectrometry; GST pull-down: 10 ug of purified GST-AIP bait (WT or variant) against 2 mg total protein of GH3 cell lysate; eluates of four experiments pooled; TMTsixplex labelling, Orbitrap MS; peptide intensities minus the GST control, variants given as fold of the WT experiment (WT = 1); only the target purified
[1] = molecular target: T1, GST-tagged human AIP p.R304Q (human)
[2] = molecular target: T2, GST-tagged human AIP p.R304*
[3] = molecular target: T3, GST-tagged human wild-type AIP (aryl hydrocarbon receptor interacting protein) (human)
[4] = molecular target: T4, GST-tagged human AIP p.K266A (human)

| binding [1] | binding [2] | binding [3] | binding [4] | Molecule |
| --- | --- | --- | --- | --- |
| no binding | no binding | binds |  | SODC_RAT Superoxide dismutase [Cu-Zn] (Sod1) (from UniProt P07632 1-154) |
|  |  | binds | binds | HS90B_RAT Heat shock protein HSP 90-beta (Hsp90ab1) (from UniProt P34058 1-724) |
| no binding | no binding | binds |  | B1 |
|  |  | binds |  | B2 |
|  |  | binds |  | B3 |
|  |  | binds |  | B4 |
|  |  | binds |  | B5 |
|  |  | binds |  | B6 |
|  |  | binds |  | B7 |
|  |  | binds |  | B8 |
|  |  | no binding |  | B9 |
